In patent publication US20190270778A1 (priority 2016, published 2019):
Strings that start with PEPTIDE1 are HELM notation: dots part the residues, brackets hold end groups and non-standard residues.

Experiment: general procedure: Fmoc solid-phase peptide synthesis; 2-chlorotrityl chloride (CTC) resin, ChemImpex, 1.0-1.7 meq/g; HATU (macrolactamisation and side-chain amino acid coupling)
Conditions: for cyclisation yield: cyclisation step; for isolated yield / crude mass / crude yield / isolated mass: whole synthesis

Substance	cyclisation yield	isolated yield	crude yield	further results
((S)-1-(((3R,6S,9S,15S,19R,20aS)-6-((1H-indol-3-yl)methyl)-9-(3-guanidinopropyl)-19-hydroxy-3-(((1s,4S)-4-hydroxycyclohexyl)methyl)-1,4,7,10,16-pentaoxoicosahydropyrrolo[1,2-a][1,4,7,10,13]pentaazacyclooctadecin-15-yl)amino)-1-oxo-3-(3,5-dideuterophenyl)propan-2-yl)glycine	–	–	–	step yield (coupling step): 94% crude yield; step yield (late stage modification step): 100% crude yield
PEPTIDE1{[CmNMePhe].[Orn].[Hyp].[D-Cha4OHcis].W.R}$PEPTIDE1,PEPTIDE1,2:R3-6:R2$$$V2.0	crude yield 100%	5.2%	–	crude mass (scale 0.3 mmol): 402 mg; crude yield (scale 0.3 mmol): crude yield 100%
PEPTIDE1{[CmPhe].[Orn].P.[D-Cha4OHcis].[7AzaTrp].R}$PEPTIDE1,PEPTIDE1,2:R3-6:R2$$$V2.0	–	6.6%	–	crude mass (scale 0.2 mmol): 271 mg; crude yield (scale 0.2 mmol): crude yield 100%
PEPTIDE1{[CmPhe].[Orn].[HypOCm].[D-Cha4OHcis].W.R}$PEPTIDE1,PEPTIDE1,2:R3-6:R2$$$V2.0	83%	–	–	step yield (late stage modification step): 35.8%; crude mass (scale 1.0 mmol): 775 mg; crude yield (scale 1.0 mmol): 79%
PEPTIDE1{[CmPhe].[Orn].[Hyp].[D-Cha4OHcis].[7AzaTrp].R}$PEPTIDE1,PEPTIDE1,2:R3-6:R2$$$V2.0	–	4.8%	–	crude mass (scale 0.2 mmol): 286 mg; crude yield (scale 0.2 mmol): crude yield 100%
PEPTIDE1{[CmPhe].[Orn].[Hyp].[D-Cha4OHcis].[Ala4MePz].R}$PEPTIDE1,PEPTIDE1,2:R3-6:R2$$$V2.0	48%	–	80%	step yield (late stage modification step): 46%
PEPTIDE1{[CmPhe].[Orn].[Hyp].[D-Cha4OHcis].[AlaIndazol3yl].R}$PEPTIDE1,PEPTIDE1,2:R3-6:R2$$$V2.0	–	10%	–	cyclisation yield (on linear hexapeptide (0.059 mmol)): 35%; isolated mass (scale 0.6 mmol): 100 mg
PEPTIDE1{[CmPhe].[Orn].[Hyp].[D-Cha4OHcis].[Trp6Et].R}$PEPTIDE1,PEPTIDE1,2:R3-6:R2$$$V2.0	42%	–	crude yield 50%	step yield (late stage modification step): 19%
PEPTIDE1{[CmPhe].[Orn].[Hyp].[D-Cha4OHcis].[Trp6OMe].R}$PEPTIDE1,PEPTIDE1,2:R3-6:R2$$$V2.0	–	2.3%	–	–
PEPTIDE1{[CmPhe].[Orn].[Pro4R-NH2].[D-Cha4OHcis].W.R}$PEPTIDE1,PEPTIDE1,2:R3-6:R2$$$V2.0	–	6.6%	100%	–
PEPTIDE1{[CmPhe].[Orn].[Pro4R-NHAc].[D-Cha4OHcis].W.R}$PEPTIDE1,PEPTIDE1,2:R3-6:R2$$$V2.0	–	20%	100%	–
PEPTIDE1{[CmPhe].[Orn].[Pro4R-NHCm].[D-Cha4OHcis].W.R}$PEPTIDE1,PEPTIDE1,2:R3-6:R2$$$V2.0	–	19.4%	–	–
PEPTIDE1{[CmPhe].[Orn].[Pro4S-NH2].[D-Cha4OHcis].W.R}$PEPTIDE1,PEPTIDE1,2:R3-6:R2$$$V2.0	100%	–	–	isolated mass (scale 3.0 mmol): 312 mg; isolated yield (scale 3.0 mmol): 10%
PEPTIDE1{[CmPhe].[Orn].[Pro4S-NHAc].[D-Cha4OHcis].W.R}$PEPTIDE1,PEPTIDE1,2:R3-6:R2$$$V2.0	–	30%	100%	–
PEPTIDE1{[CmPhe].[Orn].[Pro4S-NHCm].[D-Cha4OHcis].W.R}$PEPTIDE1,PEPTIDE1,2:R3-6:R2$$$V2.0	–	5.7%	–	crude mass (scale 0.2 mmol): 297 mg; crude yield (scale 0.2 mmol): crude yield 100%
